# Results published in PubChem BioAssay AID504444 (National Center for Advancing Translational Sciences (NCATS), 2011).
# Out of some 360,000 compounds screened, about 7,500 (2.1%) were called active. The inconclusive results got no clear call from the source; some entries with a clear call stand among them for comparison. Calls come from the whole dose curve; as a rule, active = well fitted inhibition curve with a large enough effect; inconclusive = small, poorly fitted or top-dose-only effect, or effect the other way; inactive = flat fitted curve, though single readings scatter. Potencies beside an inconclusive call are fits to weak or partial responses and may not hold up.
# Test: Nrf2 qHTS screen for inhibitors; note: nearly all actives have a fitted effect of over 60% in size
# Settings: A549 ARE-Fluc reporter, luciferase luminescence, 18-24 h; activity change, negative = inhibition: at 46 µM (top of the series)
# How it was run: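 Two sequential reads on A549 ARE_Fluc cells exposed to compound for 18-24 h: a CellTiter-Fluor fluorescence read for viability, then a luciferase luminescence read for Nrf2/ARE activity.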
# % is set by controls: 0 for no effect and ±100 for the full control effect; potency is the fitted concentration of half-maximal effect.
SMILES,Potency,"activity change, negative = inhibition"
CCC(=O)c1ccc(OCC(O)Cn2c(C)nc3ccccc32)cc1 (stereo not drawn),"inconclusive: 7.31 µM [falling, partial curve, poor fit]",–
O=C(NNc1c(Cl)cccc1Cl)c1sc2ccccc2c1Cl,–,inactive: -3.72%
CCOC(=O)c1ccc(Oc2cn[nH]c2-c2ccc(O)cc2O)cc1,"inconclusive: 7.31 µM [activator, partial curve, poor fit]",–
CCN(CC)CCNC(=O)C(=O)NCC(c1cccnc1)N1CCN(c2ccccc2)CC1 (stereo not drawn),"inconclusive: 29.1 µM [activator, single point]",–
Cc1ccc(C(=O)Nc2nnc(C3=COCCO3)o2)cc1C,"inconclusive: 20.6 µM [falling, partial curve, poor fit]",–
COc1ccc(OC)c(C(C[N+](=O)[O-])c2c(C)cc3ccccn23)c1 (stereo not drawn),"inconclusive: 13 µM [falling, partial curve]",–
Cc1ccc(C)c(Nc2nc(-c3ccccc3)c3cc(Br)ccc3n2)c1,–,inactive: -3.42%
Brc1ccc(-c2nnc(-c3cccnc3)o2)cc1,"inconclusive: 23.1 µM [activator, single point]",–
CN1/C(=C\P(=O)(N(C)C)N(C)C)C(C)(C)c2ccccc21,"inconclusive: 11.6 µM [falling, partial curve]",–
CC(=O)OCC(=O)[C@@]1(O)CC[C@H]2[C@@H]3CCC4=CC(=O)C=C[C@]4(C)[C@@]3(Cl)[C@@H](Cl)C[C@@]21C,active: 8.2 µM,–
CCOC(=O)c1c(C)[nH]c(C)c1C(=O)COc1ncnc2cc([N+](=O)[O-])ccc12,"inconclusive: 16.4 µM [falling, partial curve, poor fit]",–
COc1cc(/C=C2\SC(=O)N(Cc3ccc(Cl)cc3)C2=O)cc([N+](=O)[O-])c1O,active: 14.6 µM,–
COC(=O)c1cccc(Cn2nnc3sc4c(c3c2=O)CCC(C(C)(C)C)C4)c1 (stereo not drawn),"inconclusive: 10.3 µM [falling, partial curve, poor fit]",–
COc1ccc(OC(C)c2nnc(N)s2)cc1 (stereo not drawn),–,inactive: -17.5%
Cc1cc(C)nc(N(C#N)S(=O)(=O)c2ccccc2Cl)n1,"inconclusive: 14.6 µM [activator, partial curve, poor fit]",–
COc1ccccc1-c1nc(C#N)c(N2CCC(Cc3ccccc3)CC2)o1,"inconclusive: 16.4 µM [falling, single point]",–
CCN(CCNC(=O)CS(=O)(=O)Cc1nc(-c2cccc(OC)c2)oc1C)c1ccccc1,–,inactive: -29.9%
N#Cc1cccc(NC(=O)Cn2nc(Cc3ccncc3)c3ccccc3c2=O)c1,–,inactive: -24.7%
S=C(Nc1ccc(Cl)cc1Cl)N1CCCCC1,"inconclusive: 16.4 µM [activator, partial curve, poor fit]",–
COC(=O)c1cc(NC(=O)c2cc(-c3ccccc3Cl)oc2C(F)(F)F)ccc1N1CCOCC1,"inconclusive: 32.6 µM [falling, single point]",–
CCn1c(SCC(=O)N2CCCCCC2)nc2c(c1=O)SCC2,"inconclusive: 23.1 µM [falling, single point]",–
CCN(CC)S(=O)(=O)c1cc(NC(=O)COc2ccc(C#N)cc2OC)ccc1C,"inconclusive: 18.4 µM [falling, single point]",–

# Fetched by structure from the entries so far, 3 records:
SMILES,Potency,"activity change, negative = inhibition"
COc1cc(/C=C2\SC(=O)N(Cc3ccc(Cl)cc3)C2=O)cc([N+](=O)[O-])c1O,active: 14.6 µM,–
CC(=O)OCC(=O)[C@@]1(O)CC[C@H]2[C@@H]3CCC4=CC(=O)C=C[C@]4(C)[C@@]3(Cl)[C@@H](Cl)C[C@@]21C,active: 8.2 µM,–
COc1ccccc1-c1nc(C#N)c(N2CCC(Cc3ccccc3)CC2)o1,"inconclusive: 16.4 µM [falling, single point]",–

# Next part

SMILES,Potency,"activity change, negative = inhibition"
Cc1ccc(C)c(Oc2cc(NC(=O)CCCn3nc(C)c([N+](=O)[O-])c3C)cc([N+](=O)[O-])c2)c1,active: 23.1 µM,–
CCOc1ccc(NCc2cc3cc(OC)ccc3[nH]c2=O)cc1,active: 25.9 µM,–
Cc1cccc(Nc2nnc(SC/C(O)=C(\C#N)c3nc4ccccc4[nH]3)s2)c1,"inconclusive: 29.1 µM [falling, single point]",–
CSC(=NNC(=O)c1ccc(O)cc1)SC,–,inactive: 1.23%
O=C(Nc1nc2ccccc2n1CCN1CCOCC1)c1ccc(Cn2cc([N+](=O)[O-])cn2)o1,–,inactive: -4.87%
COc1cccc(C(=O)N/N=C/c2ccc(OC)c(COc3ccccc3C(N)=O)c2)c1,"inconclusive: 25.9 µM [falling, partial curve]",–
O=C(CCN1C(=O)/C(=C/c2ccccc2Cl)SC1=S)N1CCOCC1,"inconclusive: 18.4 µM [activator, partial curve]",–
CCNc1nc(NCC)nc(SCCOc2ccc(C)cc2)n1,"inconclusive: 25.9 µM [falling, single point]",–
COc1cc(C(c2c(C)[nH][nH]c2=O)c2c(C)[nH][nH]c2=O)ccc1OS(=O)(=O)c1ccc(C)cc1,"inconclusive: 2.59 µM [falling, full curve]",–
O=C(N/N=C/C1CC2CCC1C2)c1c[nH]c2ccccc12 (stereo not drawn),"inconclusive: 18.4 µM [activator, single point]",–
Cc1occc1C(=O)Nc1cc(C(C)(C)C)on1,"inconclusive: 0.92 µM [activator, full curve]",–
Brc1ccc(C=Nc2ccc(Nc3ccccc3)cc2)s1,"inconclusive: 29.1 µM [falling, single point]",–
NC(=O)C1CC(=O)N(c2ccc(OCc3ccc(Cl)cc3)cc2)C1 (stereo not drawn),"inconclusive: 0.517 µM [activator, full curve]",–
Cc1cc(Sc2ccc(Cl)cc2)nc2ccccc12,"inconclusive: 29.1 µM [activator, single point]",–
O=C1CS(=O)(=O)N(Cc2ccccc2F)c2ccc(Br)cc21,"inconclusive: 16.4 µM [activator, single point]",–
O=C(N/N=C\c1cn[nH]c1-c1ccc(Cl)cc1)c1cccs1,–,inactive: 18.1%
Cc1cc(C)c(S(=O)(=O)N2CCCCC2)c(C)c1N(C)S(=O)(=O)c1ccc(Cl)cc1,"inconclusive: 20.6 µM [falling, single point]",–
Cc1cc(C(F)(F)F)nn1-c1nc(-c2ccccc2)cc(C(F)(F)F)n1,–,inactive: -21.2%
c1c[nH]c(CNc2ncnc3ccc(-c4ccc5c(c4)OCO5)cc23)n1,–,inactive: 5.97%
COc1ccccc1N(CC(=O)NCc1ccc(F)cc1)C(=O)CCC(=O)Nc1nccs1,"inconclusive: 20.6 µM [falling, single point]",–
Cc1ccccc1NC(=O)Cn1c(=O)n(CCc2ccccc2)c(=O)c2sc3ccccc3c21,–,inactive: 3.85%
